The list shows a part of the results. These are further read-outs of the screen, such as a control signal, another cell line or another target. No call is given for them. Compounds called inactive in the main read-out are mostly missing here. Words in brackets tell the shape of the fitted curve; partial curves, single points and poor fits give uncertain potencies.
Experiment: qHTS Assay for Lipid Storage Modulators in Drosophila S3 Cells;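 on cell number change: cells counted by Cell Tracker Red CMTPX staining in the red channel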
Details: BODIPY lipid droplet fluorescence, 18-24 h; for cell number change: measured here: cell count max response, cells fed with added oleic acid
Procedure, shortened: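 Laser-scanning cytometry quantifies lipid droplet accumulation (500–530 nm total intensity; droplet/cell object ratio) in oleic acid-fed (400 uM added) Drosophila S3 cells treated with a concentration series. 20 uM Triacsin C defined 100% inhibition.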

[1] = measured here: cell number channel AC50, cells fed with added oleic acid
[2] = measured here: lipid fluorescence (Fed channel) AC50, cells fed with added oleic acid

Cn1c(=O)c(Cc2ccccc2)c(O)c2ccccc21
cell number change: -20.2% | AC50 [1]: 0.00517 µM [falling, full curve, poor fit] | AC50 [2]: 18.4 µM [falling, partial curve]

COC(=O)Cc1c(O)ccn(Cc2ccc(OC)c(OC)c2)c1=O
cell number change: 20% | AC50 [1]: 0.461 µM [falling, single point]

O=C(CCN1C(=O)/C(=C/c2ccccc2Cl)SC1=S)NC1CCS(=O)(=O)C1 (centres undefined)
cell number change: 9.54% | AC50 [2]: 6.51 µM [falling, single point]

CCOC(=O)c1[nH]ncc1[C@@H]1C[C@H]2CN(Cc3cccc(Cl)c3)C(=O)[C@]23CCCN13
cell number change: -1.03% | AC50 [2]: 0.116 µM [rising, full curve, poor fit]

Cc1nc(NC(=O)C23CC4CC(CC(C4)C2)C3)sc1Cc1ccc2c(c1)OCO2
cell number change: -8.75% | AC50 [2]: 8.2 µM [falling, partial curve, poor fit]

COCCNC(=O)CSc1ccccc1C(=O)NC1CCCc2ccccc21 (centres undefined)
cell number change: -3.23%

CCN(C(=O)CCS(=O)(=O)c1cccc2nsnc12)c1cccc(C)c1
cell number change: 23.3% | AC50 [2]: 2.91 µM [rising, partial curve, poor fit]

COc1ccc(NC(=O)c2ccco2)cc1NC(=O)c1cccnc1
cell number change: 146% | AC50 [1]: 18.4 µM [rising, partial curve] | AC50 [2]: 20.6 µM [rising, partial curve]

Cc1ccc(-c2nnn(CC(=O)N(Cc3cccs3)C(C(=O)NC(C)(C)C)c3ccc(C)o3)n2)o1 (centres undefined)
cell number change: -97.3% | AC50 [1]: 29.1 µM [falling, single point] | AC50 [2]: 20.6 µM [falling, single point]

CS(=O)(=O)c1ccc2nc(NC(=O)C3CC(=O)N(c4ccc(F)cc4)C3)sc2c1 (centres undefined)
cell number change: 41.7% | AC50 [1]: 20.6 µM [rising, single point]

CCCCNC(=O)c1ccc2c(c1)ncn2C1CCCCC1
cell number change: 106% | AC50 [1]: 14.6 µM [rising, partial curve] | AC50 [2]: 6.51 µM [rising, single point]

CC1=C(C(=O)OC2CCCCCCC2)C(c2ccc(O)cc2)NC(=O)N1 (centres undefined)
cell number change: 15.4% | AC50 [2]: 0.206 µM [falling, full curve, poor fit]

COc1ccc(C2SCCN2S(=O)(=O)c2ccc(NC(C)=O)cc2)cc1 (centres undefined)
cell number change: -10.6% | AC50 [2]: 2.91 µM [rising, full curve]

COc1ccc(Nc2nc(-c3ccccc3)c(C(=O)Nc3cccnc3)s2)cc1
cell number change: -32.7% | AC50 [1]: 0.0058 µM [falling, full curve, poor fit]

CCOc1cc(S(=O)(=O)n2cc(-c3ccc(F)cc3)c(N)n2)cc(OCC)c1OCC
AC50 [1]: 1.46 µM [rising, partial curve] | AC50 [2]: 1.46 µM [rising, partial curve]

Cc1ccc(S(=O)(=O)NNC(=O)C(O)(c2ccccc2)c2ccccc2)cc1
cell number change: -10.6% | AC50 [1]: 0.184 µM [falling, full curve, poor fit] | AC50 [2]: 0.326 µM [falling, partial curve, poor fit]

Cc1c(F)cccc1NC(=O)CSCC(=O)Nc1ccccc1
AC50 [1]: 0.58 µM [rising, full curve] | AC50 [2]: 0.517 µM [rising, full curve]

Cc1cc(=O)oc2ccc(OCC(=O)N(Cc3ccc(F)cc3)Cc3ccco3)cc12
AC50 [2]: 0.13 µM [falling, full curve, poor fit]

CC1(C)Cc2c(c(N3CCOCC3)nc3sc(C#N)c(N)c23)CS1
cell number change: -7.65% | AC50 [2]: 6.51 µM [rising, single point]

Cc1noc(C)c1COc1ccc(C(=O)NCC(c2c(F)cccc2Cl)N(C)C)cc1 (centres undefined)
AC50 [1]: 0.116 µM [falling, full curve, poor fit]

Cc1csc(NC(=O)CSc2nnc(C)n2Cc2ccco2)n1
AC50 [2]: 4.61 µM [rising, single point]

Cc1ccnn1-c1ccc(C(=O)N2CCCN(S(=O)(=O)c3ccc(F)cc3)CC2)cc1
cell number change: -7.78% | AC50 [1]: 1.84 µM [rising, partial curve] | AC50 [2]: 2.31 µM [rising, partial curve, poor fit]

COc1ccc(C(C(=O)NC2CCCCC2)N(Cc2cccnc2)C(=O)c2snc(C(N)=O)c2N)cc1 (centres undefined)
cell number change: 31.7% | AC50 [1]: 36.6 µM [rising, partial curve, poor fit]

CCc1c(C(=O)N2CCCN(C)CC2)csc1C
cell number change: 9.12% | AC50 [2]: 0.58 µM [falling, partial curve]

COc1cccc(CNC(=O)CS(=O)(=O)Cc2nc(-c3ccc(C)cc3)oc2C)c1OC
cell number change: 2.88%

CCn1c(CC(=O)Nc2cccc(OC)c2)nnc1SCC(=O)N1CCN(c2ccccc2)CC1
cell number change: -4.08% | AC50 [2]: 16.4 µM [rising, single point]

CCCCc1nc2ccccc2c(NC(=O)CNC(C)(C)C)c1CCC
cell number change: 10.2% | AC50 [2]: 0.326 µM [falling, single point]

O=C(CN1C(=O)c2ccccc2S1(=O)=O)Nc1ccc(S(=O)(=O)N2CCCCC2)cc1
cell number change: -11% | AC50 [2]: 4.61 µM [falling, single point]

Cc1c(C(=O)O)[nH]c2c1C(=O)CC(c1ccc(C(C)(C)C)cc1)C2 (centres undefined)
cell number change: -13.9% | AC50 [2]: 29.1 µM [rising, partial curve, poor fit]

C[C@@H](C(=O)Nc1ccc2ccccc2c1)[C@@H]1C[C@@]1(C)[C@@H](NC(=O)OCc1ccccc1)c1ccccc1
cell number change: 26.3% | AC50 [2]: 20.6 µM [falling, single point]

CCOC(=O)CSc1nc2sc3c(c2c(=O)n1-c1ccc(C)cc1)CCN(C)C3
cell number change: 56.3% | AC50 [1]: 14.6 µM [rising, partial curve, poor fit]

CC(C)(C)OC(=O)N[C@@H](C(=O)OC(C)(C)C)c1ccc2ccccc2c1
cell number change: -15% | AC50 [2]: 0.116 µM [falling, single point]

Cc1oncc1C(=O)NC(C)C
cell number change: -15.5% | AC50 [2]: 25.9 µM [falling, partial curve]

Cc1[nH]c2ccccc2c1C(=O)/C=C/c1ccccc1Cl
cell number change: 9.41% | AC50 [2]: 0.291 µM [rising, full curve]

CCOc1ccc(C(c2c(C)[nH][nH]c2=O)c2c(C)[nH][nH]c2=O)cc1OCC
cell number change: -7.89% | AC50 [2]: 0.206 µM [falling, full curve, poor fit]

NC(=O)c1ccccc1NC(=O)Nc1cccc(Cl)c1
cell number change: 53.7% | AC50 [1]: 29.1 µM [rising, single point] | AC50 [2]: 6.51 µM [falling, single point]

Cc1ccc(CN(C(=O)c2cc(=O)c3cc(Cl)c(C)cc3o2)C2CCS(=O)(=O)C2)cc1 (centres undefined)
cell number change: -12.6% | AC50 [2]: 23.1 µM [falling, partial curve, poor fit]

COc1ccc2[nH]c(C)c(C(=O)CN3CCOCC3)c2c1
cell number change: 26.4%

O=C1OC(c2ccc(Cl)cc2)=N/C1=C\C=C\c1ccco1
cell number change: 41.1%

CCCCOC(=O)N1CCOCCOCCN(C(=O)OCCCC)CCOCCOCC1
cell number change: 0.488%

Cc1ccc(CNc2ncnc(N)c2[N+](=O)[O-])cc1
cell number change: 7.93%

CCOc1ccccc1NC(=O)Nc1cc(S(=O)(=O)N(C)C)ccc1C
cell number change: -23.5% | AC50 [2]: 29.1 µM [falling, single point]

O=C(CCC(=O)Nc1ccccc1Cl)NNC(=O)NC1CCCCC1
cell number change: 6.49%

CC(=O)NCCn1c(SCC(=O)NCCC(C)C)nc2ccccc2c1=O
cell number change: 19.7% | AC50 [2]: 29.1 µM [rising, single point]

CCCCn1c(SCC(=O)Nc2ccc3c(c2)OCCO3)nnc1C(CC)N(C)C (centres undefined)
cell number change: -64.4% | AC50 [1]: 10.3 µM [falling, partial curve] | AC50 [2]: 6.51 µM [falling, partial curve]

CC(C)OC(=O)c1cc2c(ccn2C)n1CC(=O)N(Cc1ccccc1)c1ccccc1
cell number change: -78% | AC50 [1]: 11.6 µM [falling, partial curve] | AC50 [2]: 6.51 µM [falling, partial curve]

CCOC(=O)c1c(C)[nH]c(C2=NNC(=Nc3ccc(OCC)cc3)SC2)c1C
cell number change: 27.8%

COc1ccc2cc(C(=O)c3ccccc3)c(=O)oc2c1
cell number change: -28.8% | AC50 [1]: 0.58 µM [falling, full curve, poor fit]

COc1ccc(S(=O)(=O)N(CC(=O)Nc2cc(C)on2)Cc2ccccc2)cc1
cell number change: -17.1% | AC50 [2]: 5.8 µM [rising, single point]

CCCCc1n[nH]c(=S)n1Cc1ccccc1
cell number change: -15.1% | AC50 [2]: 35.5 µM [falling, single point]

COc1ccccc1N1CCN(c2ccc3cc(S(=O)(=O)N4CCCCC4)ccc3n2)CC1
cell number change: 13.1% | AC50 [2]: 29.1 µM [rising, single point]

Cc1cccc(C)c1NC(=O)c1nc(S(=O)(=O)Cc2ccccc2)ncc1Cl
cell number change: -79.5% | AC50 [1]: 7.31 µM [falling, partial curve] | AC50 [2]: 1.16 µM [falling, partial curve, poor fit]

O=C(NC1CCCC1)C(c1ccsc1)N(Cc1ccco1)C(=O)Cc1cccs1 (centres undefined)
cell number change: -17.3% | AC50 [2]: 23.1 µM [rising, single point]

O=C(CN1C(=O)COc2ccc(Cl)cc21)Nc1nccs1
cell number change: 6.36% | AC50 [2]: 0.82 µM [rising, partial curve]

O=C(CSc1nnc(C2CC2)n1C1CC1)c1ccc(F)c(F)c1
cell number change: -5.89% | AC50 [2]: 6.51 µM [rising, single point]

Cc1ccc(OCCCC(=O)N2CCOCC2)cc1
cell number change: 55.4% | AC50 [1]: 20.6 µM [rising, single point]

O=C(CCS(=O)(=O)Cc1ccccc1)N1CCN(c2ccccc2)CC1
cell number change: -37.5% | AC50 [1]: 29.1 µM [falling, single point] | AC50 [2]: 20.6 µM [falling, single point]
